Assay results reported in patent US20070015232A1, “Mitotic index assay” (DiscoveRx, Inc., priority 2005, published 2007).
For part of these data: At least one structure is not confirmed: it was looked up by name or label, or the drawing left a doubt. Some entries share one result that the patent states for a list of compounds.

Columns and labels:
[1] = test system: Clone #69 CHO-K1 cells expressing EA-NLS/NRS and GR-PL; experiment: EFC assay in stable clone #69 (CHO-K1, EA-NLS/NRS and GR-PL) with or without RU486 pre-incubation; type: cell-based; settings: for EFC activity response to titration (in words): overnight
Description: In the next experiment, a stable clone (clone #69) expressing both EA-NLS/NRS and GR-PL was isolated in a CHO-K1 parental background. […] 20,000 cells/well were plated in a 96 well white coming multi-well plate and allowed to adhere overnight. The next day, the cells were washed two times with serum free F12 media and 100 μL of serum free F12 media was added to the cells. The cells were then incubated in either vehicle (ethanol-1% final concentration) or 10 μM RU486 for one hour. To the cells, three different concentrations of dexamethasone (300, 100, 30 μM) (an agonist of GR), RU486 (30, 10, 3.33 μM), colchicine (1, 0.3, 0.1 μ/mL) or nocodazole (10, 3.33, 1.11 μg/mL) were added and the incubation went overnight at 37° C. with 5% CO2. The next day, the media was aspirated off and 100 μL of Tropix/ABI Gal screen cell lysis/substrate reagent was added to the cells. The plate was read on the Victor II reader at 30, 60 and 120 minutes.

[2] = test system: CHO-K1+EA-NLS/NRS+GR-PL cells; experiment: EFC mitotic index assay, CHO-K1+EA-NLS/NRS+GR-PL cells, antibiotic selected pool (DX M19/GR pool); type: cell-based; settings: overnight treatment, titrated with increasing concentrations
Description: In all experiments described, 20,000 cells/well were plated in a 96 well Corning clear bottom white plate in a total volume of 100 μL. The cells were treated for 24 hours with 5 μL of either the appropriate vehicle control or varying concentrations of the six compounds listed above. The next day, 100 μL of Tropix/ABI Gal screen cell lysis buffer/substrate mixture (24:1 ratio of component) was added to the cells/media and the plate was read on the Victor II luminescent plate reader at 30, 60 and 120 minutes after the lysis/substrate addition.
The initial test of the cell cycle arresting compounds was performed on a double stable cell line having both of the constructs expressing the EA-NLS/NRS and GR-PL. (PL is β-galactosidase enzyme donor fragment and EA is the enzyme acceptor fragment available from DiscoveRx, Fremont, CA.). The parental line, C2C12 is derived from mouse muscle cells. In the experiments in which EA-NLS/NRS and GR-PL are expressed in the C2C12 parental cell line, the constructs were generated by subcloning the human GR sequence into a MFG-based retroviral vector that had been molecularly altered in a lab at Stanford. An MFG vector is described in U.S. Pat. No. 6,544,771. The EA-NLS/NRS fragment was subcloned into a wzl-based retroviral vector again molecularly altered in a lab at Stanford. […]

Structure (SMILES) | effect of incubation with RU486 on the EFC response (in words) ([1]; 10 μM RU486 pre-incubation for one hour) | EFC activity response to titration (in words) [1] | increase in EFC [2] | increase in EFC activity ([1]; at each of the concentrations tested)
C[C@@H]1C[C@H]2[C@@H]3CCC4=CC(=O)C=C[C@]4(C)[C@@]3(F)[C@@H](O)C[C@]2(C)[C@@]1(O)C(=O)CO [Dexamethasone, dexamethasone] | blocked by the incubation with RU486 | very strong response |  | 
COC(=O)Nc1nc2ccc(C(=O)c3cccs3)cc2[nH]1 [Nocodazole, nocodazole] |  |  | ≤ 4 fold | 3-4 fold
CC#C[C@]1(O)CC[C@H]2[C@@H]3CCC4=CC(=O)CCC4=C3[C@@H](c3ccc(N(C)C)cc3)C[C@@]21C [RU486] |  | did not show an increase in EFC activity |  | 
CC(=O)O[C@H]1C(=O)[C@@]2(C)[C@H]([C@H](OC(=O)c3ccccc3)[C@]3(O)C[C@H](OC(=O)[C@H](O)[C@@H](NC(=O)c4ccccc4)c4ccccc4)C(C)=C1C3(C)C)[C@]1(OC(C)=O)CO[C@@H]1C[C@@H]2O [Taxol, paclitaxel] |  |  | ≤ 4 fold | 
